The list shows a part of the results.
Compound: CC1Cc2ccccc2N1C(=O)C1CCCN(C1)C(=O)CCl (mixture of isomers) [TRIM25 ligand 11 (diastereomer mixture)]
Test: probe-labelled cysteine peptide fold change vs DMSO (competition) (log2 fold change); higher = less target engagement (more negative = stronger competition)
Conditions: THP-1, incubation time: 4 h
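Note: competitive chemoproteomic profiling in live THP-1 cells with an iodoacetamide desthiobiotin (IA-DTB) probe, comparing probe-labelled peptide intensities in compound-treated cells against DMSO-treated controls.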

By UniProt entry, the sequences of proteins in these tests, tags left out. Where a name states a change or a piece, a line headed by the entry shows the natural chain unless it says otherwise.
UniProt Q9BV44: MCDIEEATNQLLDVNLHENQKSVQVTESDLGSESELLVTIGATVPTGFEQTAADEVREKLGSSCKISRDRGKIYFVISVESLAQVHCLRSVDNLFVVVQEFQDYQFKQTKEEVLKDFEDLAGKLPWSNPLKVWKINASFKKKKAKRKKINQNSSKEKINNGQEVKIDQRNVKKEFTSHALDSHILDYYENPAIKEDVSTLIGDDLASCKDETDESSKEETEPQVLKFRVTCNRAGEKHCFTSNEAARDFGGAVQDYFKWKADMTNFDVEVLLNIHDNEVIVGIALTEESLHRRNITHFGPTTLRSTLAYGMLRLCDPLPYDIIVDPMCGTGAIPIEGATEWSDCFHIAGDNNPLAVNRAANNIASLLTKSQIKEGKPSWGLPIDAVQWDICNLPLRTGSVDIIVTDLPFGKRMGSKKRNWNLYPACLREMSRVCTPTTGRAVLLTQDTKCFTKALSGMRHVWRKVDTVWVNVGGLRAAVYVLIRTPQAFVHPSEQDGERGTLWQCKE
UniProt Q5TEJ8: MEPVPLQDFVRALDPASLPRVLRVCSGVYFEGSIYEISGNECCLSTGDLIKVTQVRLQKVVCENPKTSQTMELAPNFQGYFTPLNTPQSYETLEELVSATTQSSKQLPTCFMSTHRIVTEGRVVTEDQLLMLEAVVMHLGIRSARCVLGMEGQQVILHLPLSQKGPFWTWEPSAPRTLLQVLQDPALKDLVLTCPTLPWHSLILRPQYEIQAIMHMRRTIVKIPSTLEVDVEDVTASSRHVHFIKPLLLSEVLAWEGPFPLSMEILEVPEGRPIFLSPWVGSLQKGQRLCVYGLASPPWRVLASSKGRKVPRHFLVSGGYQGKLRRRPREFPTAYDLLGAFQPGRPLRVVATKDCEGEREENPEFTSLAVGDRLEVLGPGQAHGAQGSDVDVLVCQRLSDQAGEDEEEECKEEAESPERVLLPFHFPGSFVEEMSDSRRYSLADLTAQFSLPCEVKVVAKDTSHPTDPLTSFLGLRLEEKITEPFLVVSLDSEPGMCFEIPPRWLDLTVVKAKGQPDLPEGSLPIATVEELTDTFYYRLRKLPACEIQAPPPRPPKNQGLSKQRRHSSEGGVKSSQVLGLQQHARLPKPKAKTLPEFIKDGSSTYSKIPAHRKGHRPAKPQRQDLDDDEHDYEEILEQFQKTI
UniProt P04183: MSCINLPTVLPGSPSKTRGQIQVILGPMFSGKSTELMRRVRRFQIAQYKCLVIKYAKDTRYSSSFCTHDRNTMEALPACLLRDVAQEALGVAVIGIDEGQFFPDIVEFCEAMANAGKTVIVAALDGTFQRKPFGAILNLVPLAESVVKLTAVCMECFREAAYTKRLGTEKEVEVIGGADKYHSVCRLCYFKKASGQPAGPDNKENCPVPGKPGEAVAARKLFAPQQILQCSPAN
UniProt P52888, whole entry, looked up: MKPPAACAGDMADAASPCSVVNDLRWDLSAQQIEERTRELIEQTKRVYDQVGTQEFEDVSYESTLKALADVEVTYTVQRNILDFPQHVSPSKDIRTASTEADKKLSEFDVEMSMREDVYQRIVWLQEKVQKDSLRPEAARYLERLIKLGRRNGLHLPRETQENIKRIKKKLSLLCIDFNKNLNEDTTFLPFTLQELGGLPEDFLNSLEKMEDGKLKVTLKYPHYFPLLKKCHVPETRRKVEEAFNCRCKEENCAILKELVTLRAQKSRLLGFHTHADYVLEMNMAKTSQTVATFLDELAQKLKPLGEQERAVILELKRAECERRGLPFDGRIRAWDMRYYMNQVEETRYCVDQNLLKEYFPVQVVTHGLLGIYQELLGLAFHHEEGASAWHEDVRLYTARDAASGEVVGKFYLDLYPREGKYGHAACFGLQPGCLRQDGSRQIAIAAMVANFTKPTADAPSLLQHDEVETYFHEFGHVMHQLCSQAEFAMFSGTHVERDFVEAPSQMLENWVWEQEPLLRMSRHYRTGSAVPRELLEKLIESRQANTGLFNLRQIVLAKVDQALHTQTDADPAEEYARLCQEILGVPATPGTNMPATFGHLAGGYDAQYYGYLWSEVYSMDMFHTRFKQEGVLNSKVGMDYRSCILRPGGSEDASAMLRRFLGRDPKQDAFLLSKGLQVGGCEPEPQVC
UniProt Q96J01: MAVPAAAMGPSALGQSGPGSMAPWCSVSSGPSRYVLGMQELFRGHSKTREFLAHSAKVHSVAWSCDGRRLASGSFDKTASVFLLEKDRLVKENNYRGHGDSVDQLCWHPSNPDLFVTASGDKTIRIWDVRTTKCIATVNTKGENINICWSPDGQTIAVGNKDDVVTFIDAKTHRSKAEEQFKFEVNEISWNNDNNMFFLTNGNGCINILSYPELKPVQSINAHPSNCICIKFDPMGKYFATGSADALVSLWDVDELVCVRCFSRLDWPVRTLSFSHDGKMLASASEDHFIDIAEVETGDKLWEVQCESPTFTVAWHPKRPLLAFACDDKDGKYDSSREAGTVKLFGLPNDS
UniProt Q9NYB0: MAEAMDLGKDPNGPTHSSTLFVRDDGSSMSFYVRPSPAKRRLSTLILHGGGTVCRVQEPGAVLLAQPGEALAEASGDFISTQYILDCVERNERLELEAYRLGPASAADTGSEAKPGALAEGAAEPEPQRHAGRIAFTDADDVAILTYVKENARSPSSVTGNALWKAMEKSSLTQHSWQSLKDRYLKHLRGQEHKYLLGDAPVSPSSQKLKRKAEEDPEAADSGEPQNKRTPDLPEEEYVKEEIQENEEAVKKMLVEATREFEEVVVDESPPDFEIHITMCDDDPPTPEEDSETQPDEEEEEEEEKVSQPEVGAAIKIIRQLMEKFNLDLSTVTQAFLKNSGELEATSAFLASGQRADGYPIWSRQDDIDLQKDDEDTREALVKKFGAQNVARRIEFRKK
UniProt P07204, whole entry, looked up: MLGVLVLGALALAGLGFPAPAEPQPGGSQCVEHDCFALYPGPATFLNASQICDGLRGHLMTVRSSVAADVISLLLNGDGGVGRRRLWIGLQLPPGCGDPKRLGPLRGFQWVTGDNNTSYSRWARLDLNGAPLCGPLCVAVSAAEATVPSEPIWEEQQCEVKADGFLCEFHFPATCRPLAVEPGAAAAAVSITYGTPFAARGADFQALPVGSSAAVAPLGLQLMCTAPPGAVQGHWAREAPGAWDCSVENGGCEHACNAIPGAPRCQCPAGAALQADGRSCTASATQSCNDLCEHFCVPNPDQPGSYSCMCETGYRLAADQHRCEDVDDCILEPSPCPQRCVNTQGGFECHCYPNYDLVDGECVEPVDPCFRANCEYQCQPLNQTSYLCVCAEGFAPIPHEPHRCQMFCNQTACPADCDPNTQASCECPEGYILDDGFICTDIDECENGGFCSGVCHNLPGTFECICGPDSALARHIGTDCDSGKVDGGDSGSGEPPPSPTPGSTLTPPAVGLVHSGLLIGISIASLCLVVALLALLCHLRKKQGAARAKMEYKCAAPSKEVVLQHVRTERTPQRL
UniProt Q13569: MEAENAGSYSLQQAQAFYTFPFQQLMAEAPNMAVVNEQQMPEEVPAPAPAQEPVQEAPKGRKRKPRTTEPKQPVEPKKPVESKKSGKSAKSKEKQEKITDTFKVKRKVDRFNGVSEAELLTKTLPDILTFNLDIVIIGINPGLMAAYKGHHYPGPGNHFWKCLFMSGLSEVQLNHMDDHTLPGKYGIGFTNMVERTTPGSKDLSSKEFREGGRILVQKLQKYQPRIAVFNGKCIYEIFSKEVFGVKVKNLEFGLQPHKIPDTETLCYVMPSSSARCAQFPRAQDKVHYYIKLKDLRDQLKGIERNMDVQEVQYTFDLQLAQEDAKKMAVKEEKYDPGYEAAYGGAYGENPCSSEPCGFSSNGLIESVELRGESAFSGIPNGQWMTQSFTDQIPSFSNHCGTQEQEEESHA
UniProt Q04726: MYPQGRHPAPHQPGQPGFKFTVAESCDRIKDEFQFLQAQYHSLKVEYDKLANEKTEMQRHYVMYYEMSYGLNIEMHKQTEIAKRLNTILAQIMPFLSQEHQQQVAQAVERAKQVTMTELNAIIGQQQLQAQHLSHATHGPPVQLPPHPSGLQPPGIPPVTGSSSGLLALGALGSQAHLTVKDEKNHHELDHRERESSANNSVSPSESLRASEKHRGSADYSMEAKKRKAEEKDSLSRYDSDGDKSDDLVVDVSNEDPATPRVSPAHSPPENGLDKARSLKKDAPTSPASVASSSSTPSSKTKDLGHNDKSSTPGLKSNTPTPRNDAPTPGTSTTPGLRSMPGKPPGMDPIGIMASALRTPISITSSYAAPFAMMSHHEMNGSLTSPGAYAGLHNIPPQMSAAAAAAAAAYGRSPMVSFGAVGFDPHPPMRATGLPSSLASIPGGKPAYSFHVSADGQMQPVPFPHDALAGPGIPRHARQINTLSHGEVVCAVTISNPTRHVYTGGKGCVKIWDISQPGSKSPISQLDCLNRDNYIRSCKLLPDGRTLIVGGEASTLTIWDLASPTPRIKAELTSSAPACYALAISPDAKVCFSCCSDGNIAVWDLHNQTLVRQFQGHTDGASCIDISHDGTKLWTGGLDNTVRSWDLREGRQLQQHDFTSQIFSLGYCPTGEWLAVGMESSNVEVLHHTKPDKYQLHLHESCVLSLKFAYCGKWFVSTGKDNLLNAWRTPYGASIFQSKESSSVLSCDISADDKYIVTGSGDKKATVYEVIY
UniProt O43422: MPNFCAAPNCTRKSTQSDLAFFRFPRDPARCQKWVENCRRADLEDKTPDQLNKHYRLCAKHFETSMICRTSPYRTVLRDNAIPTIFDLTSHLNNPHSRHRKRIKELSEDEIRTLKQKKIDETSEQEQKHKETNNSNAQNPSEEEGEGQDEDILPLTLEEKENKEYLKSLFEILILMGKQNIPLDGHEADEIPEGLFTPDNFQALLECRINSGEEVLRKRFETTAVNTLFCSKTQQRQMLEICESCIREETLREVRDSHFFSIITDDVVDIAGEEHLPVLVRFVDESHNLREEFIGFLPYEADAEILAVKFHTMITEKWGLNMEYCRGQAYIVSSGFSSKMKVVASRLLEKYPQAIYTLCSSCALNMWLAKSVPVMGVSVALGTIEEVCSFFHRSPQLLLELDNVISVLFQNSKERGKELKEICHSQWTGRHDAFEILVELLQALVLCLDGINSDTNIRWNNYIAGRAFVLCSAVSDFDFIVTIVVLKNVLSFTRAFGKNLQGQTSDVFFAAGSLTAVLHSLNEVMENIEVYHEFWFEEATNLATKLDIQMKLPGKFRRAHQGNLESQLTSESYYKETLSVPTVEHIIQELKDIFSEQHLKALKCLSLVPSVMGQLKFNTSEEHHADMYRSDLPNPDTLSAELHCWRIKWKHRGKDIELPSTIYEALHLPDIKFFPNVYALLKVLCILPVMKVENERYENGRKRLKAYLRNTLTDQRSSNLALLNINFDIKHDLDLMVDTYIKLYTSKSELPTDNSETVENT
UniProt Q13769: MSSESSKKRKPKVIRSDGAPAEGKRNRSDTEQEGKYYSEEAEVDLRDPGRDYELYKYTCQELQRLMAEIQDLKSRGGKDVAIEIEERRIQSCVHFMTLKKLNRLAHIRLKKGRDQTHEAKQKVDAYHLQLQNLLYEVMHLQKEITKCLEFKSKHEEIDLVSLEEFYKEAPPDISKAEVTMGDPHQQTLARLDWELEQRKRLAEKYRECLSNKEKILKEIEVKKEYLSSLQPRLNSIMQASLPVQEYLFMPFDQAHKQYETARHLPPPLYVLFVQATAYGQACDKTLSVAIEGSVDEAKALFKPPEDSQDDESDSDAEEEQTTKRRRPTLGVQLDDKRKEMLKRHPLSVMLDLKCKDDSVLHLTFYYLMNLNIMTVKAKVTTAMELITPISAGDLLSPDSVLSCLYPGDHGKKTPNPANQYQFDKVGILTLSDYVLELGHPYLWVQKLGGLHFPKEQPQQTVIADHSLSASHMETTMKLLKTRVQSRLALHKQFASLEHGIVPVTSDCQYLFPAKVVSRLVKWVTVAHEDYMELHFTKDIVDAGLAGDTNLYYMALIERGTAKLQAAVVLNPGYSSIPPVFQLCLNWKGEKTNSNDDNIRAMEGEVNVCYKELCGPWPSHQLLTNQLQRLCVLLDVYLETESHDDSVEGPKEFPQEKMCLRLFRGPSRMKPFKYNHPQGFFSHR
UniProt O75663: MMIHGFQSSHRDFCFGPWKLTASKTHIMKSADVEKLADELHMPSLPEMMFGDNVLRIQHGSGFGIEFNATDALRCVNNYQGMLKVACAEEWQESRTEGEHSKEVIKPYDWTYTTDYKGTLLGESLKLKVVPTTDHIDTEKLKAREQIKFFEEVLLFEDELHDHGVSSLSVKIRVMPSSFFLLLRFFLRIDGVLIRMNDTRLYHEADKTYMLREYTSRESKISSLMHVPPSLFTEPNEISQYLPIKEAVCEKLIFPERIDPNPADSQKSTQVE
UniProt Q9P016: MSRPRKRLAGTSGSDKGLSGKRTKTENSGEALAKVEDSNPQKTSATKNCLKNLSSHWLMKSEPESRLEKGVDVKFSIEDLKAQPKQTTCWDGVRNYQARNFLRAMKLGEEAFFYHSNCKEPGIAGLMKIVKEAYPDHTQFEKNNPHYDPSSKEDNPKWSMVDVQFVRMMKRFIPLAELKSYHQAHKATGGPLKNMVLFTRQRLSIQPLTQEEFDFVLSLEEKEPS

THUMPD3_Q9BV44_391_PSWGLPIDAVQWDICNLPLR (UniProt Q9BV44)
probe-labelled cysteine peptide fold change (10 µM): -0.143
probe-labelled cysteine peptide fold change (50 µM): -0.0868

THEMIS2_Q5TEJ8_545_KLPACEIQAPPPRPPK (UniProt Q5TEJ8)
probe-labelled cysteine peptide fold change (10 µM): -0.000191
probe-labelled cysteine peptide fold change (50 µM): -0.112

TK1_P04183_230_LFAPQQILQCSPAN (UniProt P04183)
probe-labelled cysteine peptide fold change (10 µM): 0.105
probe-labelled cysteine peptide fold change (50 µM): -0.179

TCIRG1_Q13488_25_SEEVALVQLFLPTAAAYTCVSR (UniProt Q13488)
probe-labelled cysteine peptide fold change (10 µM): -0.0973
probe-labelled cysteine peptide fold change (50 µM): -0.276

THOP1_P52888_246_VEEAFNCR (UniProt P52888)
probe-labelled cysteine peptide fold change (10 µM): 0.0401
probe-labelled cysteine peptide fold change (50 µM): -0.177

THY1_P04216_28_VTSLTACLVDQSLR (UniProt P04216)
probe-labelled cysteine peptide fold change (10 µM): 0.135
probe-labelled cysteine peptide fold change (50 µM): 0.106

TCP1_P17987_397_SLHDALCVVKR (UniProt P17987)
probe-labelled cysteine peptide fold change (10 µM): -0.234
probe-labelled cysteine peptide fold change (50 µM): -0.219

TIGAR_Q9NQ88_256_EVKPTVQCICMNLQDHLNGLTETR (UniProt Q9NQ88)
probe-labelled cysteine peptide fold change (10 µM): 0.0239
probe-labelled cysteine peptide fold change (50 µM): 0.0753

TLE4_Q04727_32_FTISESCDR (UniProt Q04727)
probe-labelled cysteine peptide fold change (10 µM): 0.114
probe-labelled cysteine peptide fold change (50 µM): 0.195

TFCP2_Q12800_395_LTIYVCQESLQLR (UniProt Q12800)
probe-labelled cysteine peptide fold change (10 µM): 0.0944
probe-labelled cysteine peptide fold change (50 µM): 0.0656

THOC3_Q96J01_65_VHSVAWSCDGRR (UniProt Q96J01)
probe-labelled cysteine peptide fold change (10 µM): -0.0874
probe-labelled cysteine peptide fold change (50 µM): -0.159

TERF2IP_Q9NYB0_54_LSTLILHGGGTVCR (UniProt Q9NYB0)
probe-labelled cysteine peptide fold change (10 µM): -0.171
probe-labelled cysteine peptide fold change (50 µM): -0.121

THBD_P07204_267_CQCPAGAALQADGR (UniProt P07204)
probe-labelled cysteine peptide fold change (10 µM): 0.143
probe-labelled cysteine peptide fold change (50 µM): 0.39

TDRD7_Q8NHU6_77_SGEITCYAMACTETAR (UniProt Q8NHU6)
probe-labelled cysteine peptide fold change (10 µM): -0.359
probe-labelled cysteine peptide fold change (50 µM): -0.347

THOC1_Q96FV9_226_HTEDREEGMDVEEGEMGDEEAPTTCSIPIDYNLYR (UniProt Q96FV9)
probe-labelled cysteine peptide fold change (10 µM): 0.0792
probe-labelled cysteine peptide fold change (50 µM): -0.248

THEMIS2_Q5TEJ8_395_LEVLGPGQAHGAQGSDVDVLVCQR (UniProt Q5TEJ8)
probe-labelled cysteine peptide fold change (10 µM): 0.11
probe-labelled cysteine peptide fold change (50 µM): -0.309

TDG_Q13569_162_CLFMSGLSEVQLNHMDDHTLPGK (UniProt Q13569)
probe-labelled cysteine peptide fold change (10 µM): -0.0694
probe-labelled cysteine peptide fold change (50 µM): -0.0672

THUMPD3_Q9BV44_239_HCFTSNEAAR (UniProt Q9BV44)
probe-labelled cysteine peptide fold change (10 µM): -0.0112
probe-labelled cysteine peptide fold change (50 µM): 0.0964

TCF20_Q9UGU0_1328_NCPAVTLTSPAK (UniProt Q9UGU0)
probe-labelled cysteine peptide fold change (10 µM): -0.359
probe-labelled cysteine peptide fold change (50 µM): -0.337

TDRKH_Q9Y2W6_109_VLLISGFPVQVCK (UniProt Q9Y2W6)
probe-labelled cysteine peptide fold change (10 µM): -0.0187
probe-labelled cysteine peptide fold change (50 µM): -0.354

TEP1_Q99973_171_GLDLSTCPIALK (UniProt Q99973)
probe-labelled cysteine peptide fold change (10 µM): 0.0301
probe-labelled cysteine peptide fold change (50 µM): 0.12

THOP1_P52888_18_MKPPAACAGDMADAASPCSVVNDLR (UniProt P52888)
probe-labelled cysteine peptide fold change (10 µM): -0.154
probe-labelled cysteine peptide fold change (50 µM): -0.415

THBD_P07204_256_EAPGAWDCSVENGGCEHACNAIPGAPR (UniProt P07204)
probe-labelled cysteine peptide fold change (10 µM): 0.0844
probe-labelled cysteine peptide fold change (50 µM): -0.111

TKT_P29401_413+417_MAAISESNINLCGSHCGVSIGEDGPSQMALEDLAMFR (UniProt P29401)
probe-labelled cysteine peptide fold change (10 µM): 0.151
probe-labelled cysteine peptide fold change (50 µM): -0.129

TLE3_Q04726_490_QINTLSHGEVVCAVTISNPTR (UniProt Q04726)
probe-labelled cysteine peptide fold change (10 µM): -0.0055
probe-labelled cysteine peptide fold change (50 µM): -0.0265

THAP12_O43422_230_RFETTAVNTLFCSK (UniProt O43422)
probe-labelled cysteine peptide fold change (10 µM): 0.0728
probe-labelled cysteine peptide fold change (50 µM): -0.135

THOC5_Q13769_282_HLPPPLYVLFVQATAYGQACDK (UniProt Q13769)
probe-labelled cysteine peptide fold change (10 µM): 0.189
probe-labelled cysteine peptide fold change (50 µM): 0.349

TGFBR1_P36897_347_NGTCCIADLGLAVR (UniProt P36897)
probe-labelled cysteine peptide fold change (10 µM): -0.0428
probe-labelled cysteine peptide fold change (50 µM): -0.0869

THOC3_Q96J01_306_LWEVQCESPTFTVAWHPK (UniProt Q96J01)
probe-labelled cysteine peptide fold change (10 µM): -0.0367
probe-labelled cysteine peptide fold change (50 µM): -0.147

TIPRL_O75663_75_CVNNYQGMLK (UniProt O75663)
probe-labelled cysteine peptide fold change (10 µM): 0.00317
probe-labelled cysteine peptide fold change (50 µM): -0.119

THYN1_Q9P016_118_LGEEAFFYHSNCK (UniProt Q9P016)
probe-labelled cysteine peptide fold change (10 µM): -0.123
probe-labelled cysteine peptide fold change (50 µM): -0.085

THSD7A_Q9UPZ6_1459_SRPVIIQELENQHLCPEQMLETK (UniProt Q9UPZ6)
probe-labelled cysteine peptide fold change (10 µM): 0.231
probe-labelled cysteine peptide fold change (50 µM): -0.0287

TEX30_Q5JUR7_21_LLDAVCLVPNK (UniProt Q5JUR7)
probe-labelled cysteine peptide fold change (10 µM): 0.108
probe-labelled cysteine peptide fold change (50 µM): -0.0166

TJAP1_Q5JTD0_350_NSPLPNCTYATR (UniProt Q5JTD0)
probe-labelled cysteine peptide fold change (10 µM): -0.102
probe-labelled cysteine peptide fold change (50 µM): -0.216

THOP1_P52888_427+434_YGHAACFGLQPGCLR (UniProt P52888)
probe-labelled cysteine peptide fold change (10 µM): 0.0761
probe-labelled cysteine peptide fold change (50 µM): -0.0391
